Reference: paper doi:10.1101/2023.01.24.525215
These are yes or no findings as the source states them, for the method shown. Binding seen in cells or lysates may run through a third protein. Some results given as binding are weak or reduced against the parent protein; the word gives no strength. Where a sequence is shown, tags or fusion partners need not be part of it.

Sequences of proteins named here, by UniProt entry; tags and fusion partners are left off.
UniProt O23320: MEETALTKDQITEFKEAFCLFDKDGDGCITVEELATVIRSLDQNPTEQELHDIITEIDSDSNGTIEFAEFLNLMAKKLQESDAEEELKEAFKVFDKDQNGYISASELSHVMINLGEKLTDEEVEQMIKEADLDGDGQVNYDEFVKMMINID

How the values were obtained:
Assay in all cases: pull-down
[1] = molecular target: GST-CML8 (Arabidopsis thaliana) (UniProt O23320)
[2] = molecular target: CAM5-GST (Arabidopsis thaliana) (UniProt Q682T9)
[3] = molecular target: T1, TGA5-GST (Arabidopsis thaliana) (UniProt Q39163)
T1 sequence: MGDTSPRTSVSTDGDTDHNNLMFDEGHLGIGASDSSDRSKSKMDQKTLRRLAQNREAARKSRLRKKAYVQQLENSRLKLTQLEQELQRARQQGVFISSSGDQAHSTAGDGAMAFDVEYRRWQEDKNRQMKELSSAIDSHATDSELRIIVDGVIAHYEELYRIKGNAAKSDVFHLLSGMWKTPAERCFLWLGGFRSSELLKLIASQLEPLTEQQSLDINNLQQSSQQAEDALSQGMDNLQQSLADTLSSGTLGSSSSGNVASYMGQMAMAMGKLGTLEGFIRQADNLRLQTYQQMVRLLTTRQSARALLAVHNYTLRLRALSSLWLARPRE

B1: His-tagged ACA8 (aa 1-180) (domain or fragment, UniProt Q9LF79 1-180)
chain: MTSLLKSSPGRRRGGDVESGKSEHADSDSDTFYIPSKNASIERLQQWRKAALVLNASRRFRYTLDLKKEQETREMRQKIRSHAHALLAANRFMDMGRESGVEKTTGPATPAGDFGITPEQLVIMSKDHNSGALEQYGGTQGLANLLKTNPEKGISGDDDDLLKRKTIYGSNTYPRKKGKG
In the case of B1, the binding [1] is reported as “binds”.

B2: WRKY53-His (protein, UniProt Q9SUP6 1-324)
chain: MEGRDMLSWEQKTLLSELINGFDAAKKLQARLREAPSPSSSFSSPATAVAETNEILVKQIVSSYERSLLLLNWSSSPSVQLIPTPVTVVPVANPGSVPESPASINGSPRSEEFADGGGSSESHHRQDYIFNSKKRKMLPKWSEKVRISPERGLEGPQDDVFSWRKYGQKDILGAKFPRSYYRCTHRSTQNCWATKQVQRSDGDATVFEVTYRGTHTCSQAITRTPPLASPEKRQDTRVKPAITQKPKDILESLKSNLTVRTDGLDDGKDVFSFPDTPPFYNYGTINGEFGHVESSPIFDVVDWFNPTVEIDTTFPAFLHESIYY
In the case of B2, the binding [2] is reported as “binds” and the binding [3] is reported as “binds”.
